Paper PMC8927350
These are yes or no findings as the source states them, for the method shown. Binding seen in cells or lysates may run through a third protein. Some results given as binding are weak or reduced against the parent protein; the word gives no strength.

Protein sequences, listed by entry. Tags and fused reporters are not part of them.
UniProt Q99LJ7: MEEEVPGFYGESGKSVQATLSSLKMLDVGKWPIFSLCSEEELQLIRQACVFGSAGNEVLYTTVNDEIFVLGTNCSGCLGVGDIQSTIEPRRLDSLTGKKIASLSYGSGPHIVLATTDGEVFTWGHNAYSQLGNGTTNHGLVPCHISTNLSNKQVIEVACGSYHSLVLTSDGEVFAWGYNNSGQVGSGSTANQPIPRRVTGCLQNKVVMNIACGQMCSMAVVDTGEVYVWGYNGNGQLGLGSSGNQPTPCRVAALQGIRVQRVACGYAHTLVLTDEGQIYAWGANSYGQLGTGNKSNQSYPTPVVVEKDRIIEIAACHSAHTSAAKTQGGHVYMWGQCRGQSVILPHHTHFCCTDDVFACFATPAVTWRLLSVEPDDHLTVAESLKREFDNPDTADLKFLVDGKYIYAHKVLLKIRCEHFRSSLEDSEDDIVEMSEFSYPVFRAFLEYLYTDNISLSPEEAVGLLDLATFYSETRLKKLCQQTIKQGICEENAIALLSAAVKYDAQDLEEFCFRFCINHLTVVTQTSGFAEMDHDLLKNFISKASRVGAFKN

T1: CEP128 (UniProt Q8BI22)
T1 sequence: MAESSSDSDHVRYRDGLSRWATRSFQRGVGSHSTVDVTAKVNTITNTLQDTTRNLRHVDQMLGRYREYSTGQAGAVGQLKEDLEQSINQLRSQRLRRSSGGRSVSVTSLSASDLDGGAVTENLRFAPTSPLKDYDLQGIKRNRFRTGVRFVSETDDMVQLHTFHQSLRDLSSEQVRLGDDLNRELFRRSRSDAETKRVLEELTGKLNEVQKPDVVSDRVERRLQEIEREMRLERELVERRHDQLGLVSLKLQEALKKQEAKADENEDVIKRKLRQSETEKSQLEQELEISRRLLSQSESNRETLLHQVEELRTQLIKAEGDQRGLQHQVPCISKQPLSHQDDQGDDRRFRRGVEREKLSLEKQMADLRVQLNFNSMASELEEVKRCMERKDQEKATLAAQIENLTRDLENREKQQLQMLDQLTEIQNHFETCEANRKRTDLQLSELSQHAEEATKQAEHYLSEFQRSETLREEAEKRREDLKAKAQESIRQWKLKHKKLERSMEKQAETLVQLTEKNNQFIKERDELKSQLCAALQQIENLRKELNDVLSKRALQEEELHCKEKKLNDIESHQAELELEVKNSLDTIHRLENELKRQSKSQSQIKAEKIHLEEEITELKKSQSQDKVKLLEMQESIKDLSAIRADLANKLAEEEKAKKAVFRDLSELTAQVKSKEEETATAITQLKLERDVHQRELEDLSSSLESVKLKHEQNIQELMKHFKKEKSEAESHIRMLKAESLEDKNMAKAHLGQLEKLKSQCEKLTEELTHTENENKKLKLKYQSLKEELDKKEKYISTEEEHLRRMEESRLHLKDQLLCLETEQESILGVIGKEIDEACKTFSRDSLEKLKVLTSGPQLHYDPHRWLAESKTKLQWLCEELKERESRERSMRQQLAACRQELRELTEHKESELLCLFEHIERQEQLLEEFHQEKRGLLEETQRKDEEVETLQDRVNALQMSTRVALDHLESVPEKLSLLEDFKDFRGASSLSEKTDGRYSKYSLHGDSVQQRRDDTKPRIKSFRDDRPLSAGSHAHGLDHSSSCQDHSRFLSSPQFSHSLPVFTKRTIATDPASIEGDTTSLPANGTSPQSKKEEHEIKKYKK

B1: Wbp2nl (protein, UniProt Q9D529 1-359)
chain: MAVNQNHTVDRRWAAIPHGESLLKKCSEVDLSFPQSPPGSNLFSGTKRGALFLTSYRVIFVTSRADNDPMFSFTMPFHLMNNCTVEQPIFGANYIKGTIQAAPDGGWEGSATFKIVFRKGGAIDFAQLMAKAASAAAQGVPLRVASFWMGPLGIYVITGDRNMYAPQAYQVAYGAPPAGYGASPVGYGVPSAGYGAPPAGYGAPPVGYVAPSPGYDVLPPGYGAVRYGSPPPLYVATPMGYGVPPPGYGPPPVRYGSPPPGYEAPTMEYGAQPPRYGTTPMGSGSPPPRYEAPPMGYGTPPSGRESIPPGSRATSVAQEAPPAGSEAGHPMSVAVQNPEFQASFPSTSSSQVHSPRSKM
B2: Prss55 (protein, UniProt Q14BX2 17-294)
chain: NVECGVRPLYDSRIQYSRIIEGQEAELGEFPWQVSIQESDHHFCGGSILSEWWILTVAHCFYAQELSPTDLRVRVGTNDLTTSPVELEVTTIIRHKGFKRLNMDNDIALLLLAKPLTFNELTVPICLPLWPAPPSWHECWVAGWGVTNSTDKESMSTDLMKVPMRIIEWEECLQMFPSLTTNMLCASYGNESYDACQGDSGGPLVCTTDPGSRWYQVGIISWGKSCGKKGFPGIYTVLAKYTLWIEKIAQTEGKPLDFRGQSSSNKKKNRQNNQLSKS
B3: Crisp1 (protein, UniProt Q03401 20-244)
chain: QDSSQENRLEKLSTTKMSVQEEIVSKHNQLRRMVSPSGSDLLKMEWNYDAQVNAQQWADKCTFSHSPIELRTTNLRCGENLFMSSYLASWSSAIQGWYNEYKDLTYDVGPKQPDSVVGHYTQVVWNSTFQVACGVAECPKNPLRYYYVCHYCPVGNYQGRLYTPYTAGEPCASCPDHCEDGLCTNSCGHEDKYTNCKYLKKMLSCEHELLKKGCKATCLCEGKIH

Molecular target: T1, CEP128
Experiment: co-IP; lysates in RIPA buffer with protease and phosphatase inhibitors; incubated with target antibodies overnight at 4 °C; Protein A/G magnetic beads 1 h at room temperature; washed three times (20 mM HEPES, 15% glycerol, 250 mM KCl, 0.2 mM EDTA, 1% NP-40); immunoblot

binding, binds:
Rcbtb2 (from UniProt Q99LJ7 1-551)
B1
B2
B3
